# Test results: the supplement of paper PMC7666118
# The chains behind the UniProt entries cited, without tags or fusion partners. Where a name states a change or a piece, a line headed by the entry shows the natural chain unless it says otherwise.
# UniProt Q8IWP9: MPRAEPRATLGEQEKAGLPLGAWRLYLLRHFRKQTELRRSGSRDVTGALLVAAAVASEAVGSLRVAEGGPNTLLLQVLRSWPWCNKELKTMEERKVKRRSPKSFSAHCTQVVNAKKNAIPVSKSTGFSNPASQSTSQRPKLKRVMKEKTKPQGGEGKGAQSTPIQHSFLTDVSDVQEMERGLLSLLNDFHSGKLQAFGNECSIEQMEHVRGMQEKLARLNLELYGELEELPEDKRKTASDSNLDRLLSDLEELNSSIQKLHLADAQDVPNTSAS
# UniProt Q8NDZ4: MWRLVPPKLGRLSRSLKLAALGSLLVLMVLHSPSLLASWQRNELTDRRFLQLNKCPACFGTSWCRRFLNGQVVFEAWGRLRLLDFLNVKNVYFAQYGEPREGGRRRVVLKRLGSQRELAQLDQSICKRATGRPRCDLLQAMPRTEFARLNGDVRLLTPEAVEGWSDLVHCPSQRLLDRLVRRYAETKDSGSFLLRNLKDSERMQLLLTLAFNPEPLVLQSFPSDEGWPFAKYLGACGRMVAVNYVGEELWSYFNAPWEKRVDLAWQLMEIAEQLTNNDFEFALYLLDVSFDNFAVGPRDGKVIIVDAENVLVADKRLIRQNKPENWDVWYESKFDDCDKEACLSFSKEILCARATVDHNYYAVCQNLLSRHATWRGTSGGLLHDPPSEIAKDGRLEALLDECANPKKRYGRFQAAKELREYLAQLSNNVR
# UniProt Q9BSG0: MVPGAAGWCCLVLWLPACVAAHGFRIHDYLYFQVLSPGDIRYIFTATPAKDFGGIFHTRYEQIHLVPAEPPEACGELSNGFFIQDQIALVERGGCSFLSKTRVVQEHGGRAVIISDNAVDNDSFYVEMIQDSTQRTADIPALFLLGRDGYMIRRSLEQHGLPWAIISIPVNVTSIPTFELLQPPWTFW
# UniProt Q9BVC5: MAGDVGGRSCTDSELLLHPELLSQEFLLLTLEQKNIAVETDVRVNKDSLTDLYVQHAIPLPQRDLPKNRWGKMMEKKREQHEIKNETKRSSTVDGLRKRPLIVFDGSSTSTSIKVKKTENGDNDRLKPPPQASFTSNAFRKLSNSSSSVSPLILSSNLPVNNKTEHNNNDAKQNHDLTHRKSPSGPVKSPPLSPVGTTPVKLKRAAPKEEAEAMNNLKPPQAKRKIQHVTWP
# UniProt Q13185: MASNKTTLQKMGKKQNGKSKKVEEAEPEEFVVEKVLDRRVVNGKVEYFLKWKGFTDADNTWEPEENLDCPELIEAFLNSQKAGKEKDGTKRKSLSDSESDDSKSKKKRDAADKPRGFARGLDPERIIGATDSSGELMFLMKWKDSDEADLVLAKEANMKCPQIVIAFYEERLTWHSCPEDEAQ
# UniProt Q86VP6: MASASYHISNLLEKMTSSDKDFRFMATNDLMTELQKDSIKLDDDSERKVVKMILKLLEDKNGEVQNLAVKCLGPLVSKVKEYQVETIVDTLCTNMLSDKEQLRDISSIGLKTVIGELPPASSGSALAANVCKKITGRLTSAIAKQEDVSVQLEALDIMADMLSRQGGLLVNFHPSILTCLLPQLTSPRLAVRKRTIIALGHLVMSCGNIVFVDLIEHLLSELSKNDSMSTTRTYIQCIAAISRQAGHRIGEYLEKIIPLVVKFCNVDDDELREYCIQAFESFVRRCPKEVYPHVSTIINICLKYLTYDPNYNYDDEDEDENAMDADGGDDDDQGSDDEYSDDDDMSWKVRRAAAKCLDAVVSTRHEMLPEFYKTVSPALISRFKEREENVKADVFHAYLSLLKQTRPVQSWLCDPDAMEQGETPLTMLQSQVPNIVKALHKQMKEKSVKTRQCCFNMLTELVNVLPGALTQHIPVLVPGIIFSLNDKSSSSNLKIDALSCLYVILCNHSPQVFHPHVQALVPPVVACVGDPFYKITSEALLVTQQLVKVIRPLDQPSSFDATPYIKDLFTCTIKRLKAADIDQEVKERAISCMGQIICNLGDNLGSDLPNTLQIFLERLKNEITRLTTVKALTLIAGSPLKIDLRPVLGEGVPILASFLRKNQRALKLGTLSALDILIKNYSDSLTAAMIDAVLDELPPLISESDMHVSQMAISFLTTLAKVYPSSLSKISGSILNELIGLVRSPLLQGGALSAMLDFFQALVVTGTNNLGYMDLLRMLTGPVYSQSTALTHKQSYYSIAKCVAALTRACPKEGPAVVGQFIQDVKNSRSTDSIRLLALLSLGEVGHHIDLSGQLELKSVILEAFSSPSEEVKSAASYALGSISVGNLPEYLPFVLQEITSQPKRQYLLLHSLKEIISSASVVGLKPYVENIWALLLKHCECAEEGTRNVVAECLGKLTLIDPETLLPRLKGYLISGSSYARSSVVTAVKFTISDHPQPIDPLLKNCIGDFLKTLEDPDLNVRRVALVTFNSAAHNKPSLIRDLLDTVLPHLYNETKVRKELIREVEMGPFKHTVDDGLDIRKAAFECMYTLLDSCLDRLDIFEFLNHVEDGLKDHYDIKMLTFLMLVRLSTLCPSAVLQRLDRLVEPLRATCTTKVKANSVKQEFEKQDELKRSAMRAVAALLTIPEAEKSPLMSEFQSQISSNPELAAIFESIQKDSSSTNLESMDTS
# UniProt Q9BV19: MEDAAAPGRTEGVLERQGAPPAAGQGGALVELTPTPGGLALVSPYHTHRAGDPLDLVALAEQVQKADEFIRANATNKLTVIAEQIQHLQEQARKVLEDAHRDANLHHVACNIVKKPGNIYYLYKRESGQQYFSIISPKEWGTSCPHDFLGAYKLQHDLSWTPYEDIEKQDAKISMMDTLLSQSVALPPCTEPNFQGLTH
# UniProt Q8N8J7: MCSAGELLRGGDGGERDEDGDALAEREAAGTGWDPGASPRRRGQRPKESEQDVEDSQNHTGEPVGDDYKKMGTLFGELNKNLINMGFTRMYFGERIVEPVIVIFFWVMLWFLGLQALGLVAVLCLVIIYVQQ
# UniProt Q8IXQ3: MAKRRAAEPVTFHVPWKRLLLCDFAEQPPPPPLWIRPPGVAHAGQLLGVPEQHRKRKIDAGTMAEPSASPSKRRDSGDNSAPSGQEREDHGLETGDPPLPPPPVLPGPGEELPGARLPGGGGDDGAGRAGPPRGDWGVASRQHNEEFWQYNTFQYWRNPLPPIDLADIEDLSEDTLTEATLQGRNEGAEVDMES
# UniProt Q629K1: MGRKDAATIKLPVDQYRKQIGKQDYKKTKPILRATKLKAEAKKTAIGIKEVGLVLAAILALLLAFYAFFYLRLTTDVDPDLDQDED
# UniProt Q68CQ4: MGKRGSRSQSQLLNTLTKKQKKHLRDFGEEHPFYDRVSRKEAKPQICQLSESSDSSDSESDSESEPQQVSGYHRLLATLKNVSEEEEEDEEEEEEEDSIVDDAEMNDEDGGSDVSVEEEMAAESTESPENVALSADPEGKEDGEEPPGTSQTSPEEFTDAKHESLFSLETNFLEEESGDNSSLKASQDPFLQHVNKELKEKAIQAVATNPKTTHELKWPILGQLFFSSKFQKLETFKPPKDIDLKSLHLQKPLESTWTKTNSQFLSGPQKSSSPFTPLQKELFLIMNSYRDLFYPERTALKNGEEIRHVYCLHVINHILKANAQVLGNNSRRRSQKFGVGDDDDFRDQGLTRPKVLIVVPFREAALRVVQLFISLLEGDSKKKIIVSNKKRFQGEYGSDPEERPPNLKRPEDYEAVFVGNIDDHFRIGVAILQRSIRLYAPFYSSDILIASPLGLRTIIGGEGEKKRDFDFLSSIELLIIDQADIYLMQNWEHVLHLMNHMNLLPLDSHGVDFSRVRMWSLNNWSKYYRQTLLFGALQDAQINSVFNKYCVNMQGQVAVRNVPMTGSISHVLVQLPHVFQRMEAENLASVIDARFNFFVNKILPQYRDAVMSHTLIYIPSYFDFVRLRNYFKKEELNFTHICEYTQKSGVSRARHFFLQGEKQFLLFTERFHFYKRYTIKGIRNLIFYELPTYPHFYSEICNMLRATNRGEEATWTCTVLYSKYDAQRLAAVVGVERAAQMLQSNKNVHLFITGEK
# UniProt Q8N357: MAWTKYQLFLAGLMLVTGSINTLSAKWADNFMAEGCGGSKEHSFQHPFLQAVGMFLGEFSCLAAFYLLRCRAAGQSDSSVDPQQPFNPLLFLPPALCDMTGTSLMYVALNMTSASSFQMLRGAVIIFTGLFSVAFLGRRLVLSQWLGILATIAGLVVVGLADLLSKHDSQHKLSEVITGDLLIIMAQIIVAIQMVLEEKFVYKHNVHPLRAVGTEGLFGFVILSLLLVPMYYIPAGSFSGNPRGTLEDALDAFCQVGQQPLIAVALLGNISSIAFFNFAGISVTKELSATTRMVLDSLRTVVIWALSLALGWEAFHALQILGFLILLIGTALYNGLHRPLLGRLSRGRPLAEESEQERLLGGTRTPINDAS
# UniProt Q16773: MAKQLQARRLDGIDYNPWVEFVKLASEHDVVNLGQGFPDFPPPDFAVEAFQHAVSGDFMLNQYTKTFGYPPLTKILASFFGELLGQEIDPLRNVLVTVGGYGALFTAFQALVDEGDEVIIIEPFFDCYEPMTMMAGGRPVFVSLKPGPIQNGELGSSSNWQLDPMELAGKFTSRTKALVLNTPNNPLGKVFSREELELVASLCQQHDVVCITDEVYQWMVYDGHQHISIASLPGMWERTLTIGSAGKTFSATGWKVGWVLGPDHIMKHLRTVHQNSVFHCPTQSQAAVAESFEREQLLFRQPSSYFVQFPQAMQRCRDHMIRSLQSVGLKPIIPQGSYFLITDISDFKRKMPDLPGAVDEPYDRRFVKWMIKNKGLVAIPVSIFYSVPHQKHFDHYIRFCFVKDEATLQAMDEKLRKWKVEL
# UniProt Q96EU7: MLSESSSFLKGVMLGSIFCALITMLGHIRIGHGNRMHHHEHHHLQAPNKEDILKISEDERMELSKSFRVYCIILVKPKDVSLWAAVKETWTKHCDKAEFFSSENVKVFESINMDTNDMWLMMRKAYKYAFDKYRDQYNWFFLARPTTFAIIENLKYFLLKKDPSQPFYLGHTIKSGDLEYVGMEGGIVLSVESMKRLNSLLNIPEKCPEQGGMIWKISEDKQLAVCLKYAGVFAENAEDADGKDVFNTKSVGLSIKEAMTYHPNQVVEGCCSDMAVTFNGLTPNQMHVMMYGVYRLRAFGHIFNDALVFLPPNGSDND
# UniProt Q5TEU4: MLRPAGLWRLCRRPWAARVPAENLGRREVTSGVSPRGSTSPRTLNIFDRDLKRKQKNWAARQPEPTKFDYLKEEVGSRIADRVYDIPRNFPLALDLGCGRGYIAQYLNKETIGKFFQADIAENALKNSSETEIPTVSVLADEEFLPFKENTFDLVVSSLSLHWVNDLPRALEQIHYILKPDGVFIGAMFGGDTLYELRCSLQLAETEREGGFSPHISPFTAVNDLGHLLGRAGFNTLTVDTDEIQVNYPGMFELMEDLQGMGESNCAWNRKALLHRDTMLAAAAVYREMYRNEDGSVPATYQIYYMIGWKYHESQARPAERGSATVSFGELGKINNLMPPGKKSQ
# UniProt P49662: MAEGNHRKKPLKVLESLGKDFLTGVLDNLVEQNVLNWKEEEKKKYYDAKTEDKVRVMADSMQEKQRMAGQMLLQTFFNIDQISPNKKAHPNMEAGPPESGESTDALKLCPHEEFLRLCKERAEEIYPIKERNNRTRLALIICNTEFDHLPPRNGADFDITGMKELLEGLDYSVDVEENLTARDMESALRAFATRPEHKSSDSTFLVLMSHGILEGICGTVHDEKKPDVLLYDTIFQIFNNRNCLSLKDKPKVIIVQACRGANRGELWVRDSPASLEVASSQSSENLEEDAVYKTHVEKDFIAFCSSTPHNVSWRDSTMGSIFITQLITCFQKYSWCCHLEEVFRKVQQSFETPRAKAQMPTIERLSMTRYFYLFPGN
# UniProt Q9Y6W3: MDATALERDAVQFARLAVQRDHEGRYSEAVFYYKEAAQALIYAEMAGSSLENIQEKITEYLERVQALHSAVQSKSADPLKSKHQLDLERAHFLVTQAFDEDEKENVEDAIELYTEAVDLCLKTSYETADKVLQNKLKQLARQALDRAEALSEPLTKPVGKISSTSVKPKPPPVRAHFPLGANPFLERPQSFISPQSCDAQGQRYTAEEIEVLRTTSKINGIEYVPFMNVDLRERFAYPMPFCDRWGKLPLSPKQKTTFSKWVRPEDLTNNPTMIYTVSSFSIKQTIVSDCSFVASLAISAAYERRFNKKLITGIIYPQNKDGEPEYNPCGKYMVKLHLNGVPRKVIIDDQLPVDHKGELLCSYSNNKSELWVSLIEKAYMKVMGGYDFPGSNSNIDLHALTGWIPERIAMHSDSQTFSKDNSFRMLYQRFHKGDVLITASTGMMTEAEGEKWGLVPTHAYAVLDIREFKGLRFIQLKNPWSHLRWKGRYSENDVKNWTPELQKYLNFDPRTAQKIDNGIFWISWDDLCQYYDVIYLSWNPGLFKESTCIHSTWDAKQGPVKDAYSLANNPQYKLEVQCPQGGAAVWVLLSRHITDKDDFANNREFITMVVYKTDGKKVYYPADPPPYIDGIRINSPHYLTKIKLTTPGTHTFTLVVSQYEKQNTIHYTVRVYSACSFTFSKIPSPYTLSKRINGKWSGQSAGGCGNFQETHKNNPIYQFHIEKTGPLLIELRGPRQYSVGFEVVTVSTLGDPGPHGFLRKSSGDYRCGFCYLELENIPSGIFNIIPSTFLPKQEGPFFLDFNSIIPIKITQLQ
# The list shows a part of the results.
# Compound: COc1ccc(Cn2ccc3cc(C)c(C(=O)NO)cc32)cc1
# Experiment: dose-dependent thermal stabilisation call (2D-TPP, DLPTP, 10% FDR) (binary (1 = stabilised)); higher = stabilised by the compound
# Conditions: system: HL-60 intact cells; concentration range 0.04-10 µM
# Description: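 2D thermal proteome profiling in intact HL-60 cells treated with BRD-3811 (0, 0.04, 0.29, 2, 10 uM) for 90 min at 37 C, then heated 3 min at one of 12 temperatures (42-63.9 C). Soluble protein was quantified by TMT10 MS. The value is the DLPTP call of the paper: dose-dependent thermal stabilisation over all temperatures at 10% FDR (F-test of a dose-response against a flat model); one experiment, one call per tested protein.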
row,Target,dose-dependent thermal stabilisation call
1,CCDC28A (UniProt Q8IWP9),inactive: 0
2,CANT1 (UniProt Q8WVQ1),inactive: 0
3,CCDC55 (UniProt Q9H0G5),inactive: 0
4,C3ORF58 (UniProt Q8NDZ4),inactive: 0
5,C2ORF7 (UniProt Q9BSG0),inactive: 0
6,C8ORF76 (UniProt Q96K31),inactive: 0
7,CALR (UniProt P27797),inactive: 0
8,CCT2 (UniProt P78371),inactive: 0
9,C2ORF49 (UniProt Q9BVC5),inactive: 0
10,CBX3 (UniProt Q13185),inactive: 0
11,CAB39 (UniProt Q9Y376),inactive: 0
12,CCT8 (UniProt P50990),inactive: 0
13,CAND1 (UniProt Q86VP6),inactive: 0
14,C1ORF50 (UniProt Q9BV19),inactive: 0
15,C4ORF32 (UniProt Q8N8J7),inactive: 0
16,C9ORF40 (UniProt Q8IXQ3),inactive: 0
17,CBR1 (UniProt P16152),inactive: 0
18,C8ORF83 (UniProt Q629K1),inactive: 0

# Pulled one by one from above, 2 records:
row,Target,dose-dependent thermal stabilisation call
10,CBX3 (UniProt Q13185),inactive: 0
16,C9ORF40 (UniProt Q8IXQ3),inactive: 0

# Next entries

row,Target,dose-dependent thermal stabilisation call
1,CASP10 (UniProt Q92851),inactive: 0
2,C1ORF107 (UniProt Q68CQ4),inactive: 0
3,C2ORF18 (UniProt Q8N357),inactive: 0
4,CCBL1 (UniProt Q16773),inactive: 0
5,CARS (UniProt P49589),inactive: 0
6,C1GALT1C1 (UniProt Q96EU7),inactive: 0
7,C3ORF75 (UniProt Q0PNE2),inactive: 0
8,CCDC50 (UniProt Q8IVM0),inactive: 0
9,C20ORF7 (UniProt Q5TEU4),inactive: 0
10,CCDC6 (UniProt Q16204),inactive: 0
11,CBX5 (UniProt P45973),inactive: 0
12,CCDC91 (UniProt Q7Z6B0),inactive: 0
13,CASP4 (UniProt P49662),inactive: 0
14,CCDC109A (UniProt Q8NE86),inactive: 0
15,C21ORF70 (UniProt Q9NSI2),inactive: 0
16,CCNB2 (UniProt O95067),inactive: 0
17,CAPN7 (UniProt Q9Y6W3),inactive: 0
18,CCDC137 (UniProt Q6PK04),inactive: 0
